Test results: PubChem BioAssay AID2685 (National Center for Advancing Translational Sciences (NCATS), 2010)
Some of the results follow. The main result of the screen is listed elsewhere. These columns were measured beside it and carry no call. Most of these compounds were active or inconclusive in the main read-out, so they are no random draw. Potencies come from curve fits of mixed quality, noted in brackets.

Test: qHTS Assay for Lipid Storage Modulators in Drosophila S3 Cells;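 on cell number change: cells counted by Cell Tracker Red CMTPX staining in the red channel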
Conditions: BODIPY lipid droplet fluorescence, 18-24 h; for cell number change: measured here: cell count max response, cells fed with added oleic acid
How it was run: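 Drosophila S3 cells loaded with oleic acid (400 uM, as added) and compounds at several concentrations; lipid droplets imaged by 488-nm laser-scanning cytometry, 500–530 nm intensity and object ratio to cell channel. Percent activity normalized to 20 uM Triacsin C.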

[1] = measured here: lipid fluorescence (Fed channel) AC50, cells fed with added oleic acid
[2] = measured here: cell number channel AC50, cells fed with added oleic acid

| Compound | cell number change [%] | AC50 [1] | AC50 [2] |
| --- | --- | --- | --- |
| O=[N+]([O-])c1ccc(S(=O)(=O)Nc2ccncc2)cc1 | -1.76 | 0.651 µM [rising, full curve, poor fit] |  |
| FC(F)(F)c1cccc(Cc2noc(CN3CCSCC3)n2)c1 | 3.26 | 2.91 µM [rising, partial curve] |  |
| O=C(NN1C(=O)C2C(C1=O)C1C=CC2C12CC2)c1ccccc1 (stereo not drawn) | 21.9 | 23.1 µM [rising, single point] |  |
| CCOC(=O)c1ccc(NC(=O)c2c(NC(=O)CCC(=O)O)sc3c2CCCCC3)cc1 | -31.6 |  | 29.1 µM [falling, single point] |
| O=C(Nc1ccccn1)c1cc(-c2ccc(Cl)s2)nc2ccccc12 | 16.3 | 5.17 µM [rising, partial curve, poor fit] | 0.13 µM [rising, full curve, poor fit] |
| Cc1ccc(C)c(-c2csc(N)c2C(=O)OC(C)C)c1 | -26 | 0.116 µM [falling, full curve, poor fit] | 0.082 µM [falling, full curve, poor fit] |
| CCOC(=O)N1CCN(C(=O)c2ccc(N3C(=O)c4ccccc4C3=O)cc2)CC1 | 5.21 | 18.4 µM [rising, single point] |  |
| Cc1ccc(-c2nn(C)c(=O)c3ccccc23)cc1S(=O)(=O)NCCO | -7.29 | 0.231 µM [rising, partial curve, poor fit] |  |
| CC(=O)c1c(C)[nH]c(C(=O)CN2CCN(S(=O)(=O)c3ccc(C(C)C)cc3)CC2)c1C | -16.8 | 0.326 µM [falling, full curve, poor fit] |  |
| O=P(c1ccccc1)(c1ccccc1)c1nc(-c2ccc(Cl)cc2)oc1N1CCOCC1 | -54.5 | 18.4 µM [falling, single point] | 23.1 µM [falling, single point] |
| CCOc1ccc(-n2cc(C(=O)Nc3cccc(Cl)c3)c3cc(OC)c(OC)cc3c2=O)cc1 | -8.71 | 29.1 µM [rising, single point] |  |
| O=C(O)CC(CC(=O)O)(C(=O)O)c1ccccc1 | -20.2 |  | 0.116 µM [falling, full curve, poor fit] |
| CC1CCC(NS(=O)(=O)c2ccc(Cl)s2)CC1 (stereo not drawn) | 64.7 |  |  |
| C=CCNC(=S)Nc1cccc2[nH]ncc12 | -50.1 |  | 0.259 µM [falling, partial curve, poor fit] |
| Cc1ccc(CONC(=O)c2ccc(C)cc2)cc1 | -8.39 | 0.82 µM [rising, partial curve, poor fit] |  |
| O=C1c2oc3ccc(F)cc3c(=O)c2C(c2ccccc2)N1CC1CCCO1 (stereo not drawn) | -2.95 |  |  |
| CC(C)CN(C(=O)CN(C)C(=O)Cc1ccccc1Cl)c1c(N)n(CC(C)C)c(=O)[nH]c1=O | 4.69 |  |  |
| CCn1c(-c2cc(-c3cc(OC)ccc3OC)nc3ccccc23)n[nH]c1=S | 113 | 20.6 µM [rising, partial curve] | 9.2 µM [rising, partial curve] |
| CCOc1ccc(NC(=O)CN(C)C(=O)c2cc([N+](=O)[O-])ccc2N2CCOCC2)cc1OCC |  | 3.26 µM [falling, full curve, poor fit] | 6.51 µM [falling, single point] |

| Compound | cell number change [%] | AC50 [1] | AC50 [2] |
| --- | --- | --- | --- |
| NS(=O)(=O)c1ccc(CCNC(=O)c2ccc(Cl)nc2)cc1 | 24.6 | 0.731 µM [falling, partial curve, poor fit] |  |
| O=C(COc1ncnc2cc(Cl)ccc12)c1ccccc1 | 31.1 |  | 0.517 µM [rising, full curve, poor fit] |
| C[C@H](NC(=O)c1ccccc1Cl)C(=O)NCCc1ccc(S(N)(=O)=O)cc1 | 24.3 | 6.51 µM [falling, partial curve, poor fit] |  |
| Cc1ccc(S(=O)(=O)N2CCN(C(=O)COC(=O)COc3cccc4c3OC(C)(C)C4)CC2)cc1 | -14.4 | 3.66 µM [falling, full curve] | 0.092 µM [falling, full curve, poor fit] |
| COc1ccc2c3c(c(=O)oc2c1)C1O[C@](c2ccsc2)(Cc2cc(C#N)ccc21)O3 | 13.8 | 5.31 µM [rising, single point] |  |
| Cc1noc(C)c1S(=O)(=O)N(CC(=O)N1CCCC1)c1ccc(C(C)C)cc1 | 34.9 | 29.1 µM [rising, single point] | 29.1 µM [rising, single point] |
| CCCCC(=O)NC(NC(=O)CCCC)c1ccc(OCCC)c(OC)c1 | -26.8 | 23.1 µM [rising, single point] | 0.651 µM [falling, full curve, poor fit] |
| N#Cc1nc(-c2ccccc2Cl)oc1NCC1CCCO1 (stereo not drawn) | 4.05 | 0.184 µM [falling, full curve, poor fit] |  |
| CC1(C)C(=O)Nc2ccccc2N1C(=O)COC(=O)c1ccc(NC(N)=O)cc1 | 14 |  |  |
| CCc1nnc(NC(=O)CN2CCN(Cc3cccc(F)c3)CC2)s1 | 20.5 | 6.51 µM [rising, partial curve, poor fit] |  |
| Cc1csc(NC(=O)c2nn(C)c(C)c2[N+](=O)[O-])n1 | -11.5 | 20.6 µM [rising, single point] | 3.26 µM [falling, single point] |
| CN(CC(=O)Nc1ccc(F)cc1)CC(=O)N(C)C1(C#N)CCCCC1 | -10.2 | 0.731 µM [rising, single point] |  |
| c1ccc2c(c1)ncn2CCC1CCCCC1 | -33.7 |  | 18.4 µM [falling, single point] |
| N#Cc1nc(-c2cccs2)oc1NCc1ccc2c(c1)OCO2 | -15.3 |  |  |
| Cc1ccc(N/C=C2\C(=O)N(c3ccc(F)cc3F)C(c3cccnc3)S2(=O)=O)cc1 (stereo not drawn) | 12.1 |  |  |
| CCN(C1CCCCC1)S(=O)(=O)CCNC(=O)c1ccccc1 |  | 1.84 µM [rising, partial curve, poor fit] |  |
| COCCCNC(=S)N/N=C/c1ccc2c(c1)OCO2 | 19.1 | 1.16 µM [rising, partial curve, poor fit] |  |
| O=C(COc1ccc(Br)cc1)Nc1ccccc1C(=O)N1CCOCC1 | 16.6 | 0.092 µM [rising, partial curve, poor fit] |  |
| CCOc1cccc(-c2nnc3n2N=C(c2cc(OC)ccc2OC)CS3)c1 | -34.7 | 9.2 µM [falling, partial curve] | 3.26 µM [falling, partial curve] |

Looked up above:
Value of COCCCNC(=S)N/N=C/c1ccc2c(c1)OCO2 under cell number change [%]: 19.1
Value of CCOc1cccc(-c2nnc3n2N=C(c2cc(OC)ccc2OC)CS3)c1 under AC50 [1]: 9.2 µM [falling, partial curve]
Value of NS(=O)(=O)c1ccc(CCNC(=O)c2ccc(Cl)nc2)cc1 under AC50 [1]: 0.731 µM [falling, partial curve, poor fit]

(cont.)

| Compound | cell number change [%] | AC50 [1] | AC50 [2] |
| --- | --- | --- | --- |
| O=S(=O)(c1ccc2ccccc2c1)N1CCOCC1 | 2.38 | 16.4 µM [falling, partial curve] |  |
| O=C(NCCCn1ccnc1)C1CCCN(S(=O)(=O)c2ccc(F)cc2)C1 (stereo not drawn) |  | 6.51 µM [rising, single point] |  |
| CSc1nc(N2CCOCC2)c2c(c1C#N)CCCCC2 |  | 6.51 µM [rising, single point] |  |
| Cc1ccc(-n2nc3c(N4CCC(C(=O)NCCc5cccs5)CC4)nnc(C)c3c2C)cc1 | 80 |  | 29.1 µM [rising, single point] |
| CCCCOC(=O)Oc1ccc2c(=O)c(Oc3cc(C)cc(C)c3)coc2c1 | 27.4 |  |  |
| CCOc1ccc(NC(=O)CN(C)C(=O)c2cn3ccccc3n2)cc1OCC |  | 4.11 µM [rising, partial curve, poor fit] | 3.66 µM [rising, partial curve] |
| COC(=O)Cn1c(=O)n(CCc2ccccc2)c(=O)c2c3c(sc21)CCCC3 |  | 2.91 µM [rising, partial curve] | 0.517 µM [rising, full curve] |
| Cc1oc(C(=O)O)cc1COc1cccc2cccnc12 |  | 7.31 µM [falling, partial curve] |  |
| Cc1c(C(c2ccc(O)cc2)c2c(C)n(C)n(-c3ccccc3)c2=O)c(=O)n(-c2ccccc2)n1C |  |  | 0.103 µM [falling, full curve] |
| Cc1ccc(N=Nc2ccc3ccccc3c2O)cc1 |  | 0.731 µM [falling, full curve, poor fit] |  |
| CCSc1nc(C)c(CC)c(C)c1C(N)=O | -20 | 5.17 µM [falling, full curve] |  |
| Cc1ccccc1-c1nc2sc3c(c2c(=O)n1N)CCCC3 | 38.9 | 29.1 µM [rising, single point] | 29.1 µM [rising, single point] |
| COc1ccc(NC(=S)NC2CC3CCC2C3)c(OC)c1 (stereo not drawn) | 35.1 |  | 7.31 µM [rising, partial curve] |
| COc1ccc(C(=O)NCc2ccc3c(c2)OCO3)cc1 | 40.6 | 0.103 µM [rising, full curve, poor fit] | 0.082 µM [rising, full curve] |
| Cc1noc(C)c1CSc1nc2[nH]ncc2c(=O)n1-c1ccccc1 | -22.4 | 9.2 µM [falling, partial curve] |  |
| CN(C)c1ccc(/C=N/OC(=O)Nc2ccccc2Cl)cc1 | -45.2 | 25.9 µM [falling, partial curve, poor fit] | 25.9 µM [falling, single point] |
| Cc1cc(C)cc(CC2CC(=O)N(c3cc(C)ccc3C)C2=O)c1 (stereo not drawn) | -1.06 |  |  |
| CCc1cc(C(=O)OC)c(NC(=O)C2CC(=O)NN2Cc2ccccc2)s1 (stereo not drawn) | -32.8 | 0.651 µM [rising, partial curve, poor fit] | 32.6 µM [falling, single point] |
| O=C(NNC(=O)C1COc2ccccc2O1)c1ccccc1 (stereo not drawn) | -32.9 |  | 7.31 µM [falling, partial curve, poor fit] |
